Data from the primary screen of doi:10.1371/journal.pone.0140310, rounded.

Drug key:
PF-562271, 0.08 µM: CN(c1ncccc1CNc1nc(Nc2ccc3c(c2)CC(=O)N3)ncc1C(F)(F)F)S(C)(=O)=O
Src-I1, 2 µM: COc1cc2ncnc(Nc3ccc(Oc4ccccc4)cc3)c2cc1OC
L-779450, 0.2 µM: Oc1cc(-c2nc(-c3ccccc3)[nH]c2-c2ccncc2)ccc1Cl
PF-04217903, 1 µM: OCCn1cc(-c2cnc3nnn(Cc4ccc5ncccc5c4)c3n2)cn1
enzastaurin, 0.8 µM: Cn1cc(C2=C(c3cn(C4CCN(Cc5ccccn5)CC4)c4ccccc34)C(=O)NC2=O)c2ccccc21
indole-3-carbinol, 0.8 µM: OCc1c[nH]c2ccccc12
OSU-03012, 1 µM: NCC(=O)Nc1ccc(-n2nc(C(F)(F)F)cc2-c2ccc3c(ccc4ccccc43)c2)cc1
pioglitazone, 2 µM: CCc1ccc(CCOc2ccc(CC3SC(=O)NC3=O)cc2)nc1 (stereo not given)
docetaxel, 0.0001 µM: CC(=O)O[C@@]12CO[C@@H]1C[C@H](O)[C@@]1(C)C(=O)[C@H](O)C3=C(C)[C@@H](OC(=O)[C@H](O)[C@@H](NC(=O)OC(C)(C)C)c4ccccc4)C[C@@](O)([C@@H](OC(=O)c4ccccc4)[C@H]21)C3(C)C
CP-690550, 1 µM: C[C@@H]1CCN(C(=O)CC#N)C[C@@H]1N(C)c1ncnc2[nH]ccc12

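The test systems are human melanoma cell lines, treated with two drugs together for 72 h and then stained and imaged. Each value is the count of nuclei relative to DMSO-treated wells, in %, so that 100 equals the control. Every drug was used at one fixed concentration, the lower of two screened (a fifth of the higher). The file gives one value for each pair and line, without errors, so small differences may be noise.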 Only some of the drugs and lines screened are listed, without regard to their results.

Drugs	LB2518-MEL
pioglitazone and OSU-03012	100
PF-04217903 and enzastaurin	86.0
docetaxel and PF-562271	72.6
indole-3-carbinol and enzastaurin	80.3
pioglitazone and L-779450	77.8
docetaxel and OSU-03012	64.8
OSU-03012 and Src-I1	123
CP-690550 and docetaxel	63.0